Some of the results follow.
Assays:
Assay in all cases: log2 fold change, soluble protein after heating vs DMSO (PISA); higher = thermal stabilisation; K562 cells, 10 uM, 30 min; active = over 0.2 and 3.5 SD of the protein, either way, in both replicates (recomputed)
[1] = compound: CS(=O)(=O)c1ccc(-c2cnc(N)c(C(=O)Nc3ccccc3)n2)cc1
Procedure, shortened: (§1)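 K562 cells at 2×10^6 cells/mL were exposed to 10 μM compound for 30 min, then aliquots were heated for 3 min across 48°C-58°C, pooled, and extracted in PBS containing 0.5% NP-40 at 4°C. The supernatant after 21,000xg for 90 min was taken as soluble protein and measured by TMTpro 16plex LC-MS/MS with channel sums equalised. Thermal stability is reported relative to control samples, with values from duplicates. Fold changes are given on a log2 scale.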

The chains behind the UniProt entries cited, without tags or fusion partners. Where a name states a change or a piece, a line headed by the entry shows the natural chain unless it says otherwise.
UniProt P04921: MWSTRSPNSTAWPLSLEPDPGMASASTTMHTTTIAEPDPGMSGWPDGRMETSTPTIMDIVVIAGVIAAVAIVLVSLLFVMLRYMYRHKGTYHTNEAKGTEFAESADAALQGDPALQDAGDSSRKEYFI
UniProt Q9Y450, whole entry, looked up: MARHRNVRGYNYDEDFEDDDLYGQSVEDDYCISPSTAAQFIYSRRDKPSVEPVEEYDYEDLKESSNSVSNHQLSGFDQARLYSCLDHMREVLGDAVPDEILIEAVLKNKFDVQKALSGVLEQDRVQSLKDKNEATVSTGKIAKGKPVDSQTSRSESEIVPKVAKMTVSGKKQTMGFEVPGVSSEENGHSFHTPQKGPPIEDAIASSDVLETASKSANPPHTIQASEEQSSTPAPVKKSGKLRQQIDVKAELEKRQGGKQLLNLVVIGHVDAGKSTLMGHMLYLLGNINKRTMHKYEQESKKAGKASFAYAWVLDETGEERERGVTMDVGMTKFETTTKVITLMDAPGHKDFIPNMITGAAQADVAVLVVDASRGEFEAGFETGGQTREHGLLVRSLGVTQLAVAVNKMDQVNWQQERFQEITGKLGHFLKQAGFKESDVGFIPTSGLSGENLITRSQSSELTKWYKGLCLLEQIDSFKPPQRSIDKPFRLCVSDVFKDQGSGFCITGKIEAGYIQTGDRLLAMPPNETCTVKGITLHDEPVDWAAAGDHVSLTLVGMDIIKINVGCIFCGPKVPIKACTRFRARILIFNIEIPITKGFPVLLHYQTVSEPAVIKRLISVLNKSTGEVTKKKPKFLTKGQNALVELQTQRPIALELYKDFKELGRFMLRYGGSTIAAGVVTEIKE
UniProt O95714: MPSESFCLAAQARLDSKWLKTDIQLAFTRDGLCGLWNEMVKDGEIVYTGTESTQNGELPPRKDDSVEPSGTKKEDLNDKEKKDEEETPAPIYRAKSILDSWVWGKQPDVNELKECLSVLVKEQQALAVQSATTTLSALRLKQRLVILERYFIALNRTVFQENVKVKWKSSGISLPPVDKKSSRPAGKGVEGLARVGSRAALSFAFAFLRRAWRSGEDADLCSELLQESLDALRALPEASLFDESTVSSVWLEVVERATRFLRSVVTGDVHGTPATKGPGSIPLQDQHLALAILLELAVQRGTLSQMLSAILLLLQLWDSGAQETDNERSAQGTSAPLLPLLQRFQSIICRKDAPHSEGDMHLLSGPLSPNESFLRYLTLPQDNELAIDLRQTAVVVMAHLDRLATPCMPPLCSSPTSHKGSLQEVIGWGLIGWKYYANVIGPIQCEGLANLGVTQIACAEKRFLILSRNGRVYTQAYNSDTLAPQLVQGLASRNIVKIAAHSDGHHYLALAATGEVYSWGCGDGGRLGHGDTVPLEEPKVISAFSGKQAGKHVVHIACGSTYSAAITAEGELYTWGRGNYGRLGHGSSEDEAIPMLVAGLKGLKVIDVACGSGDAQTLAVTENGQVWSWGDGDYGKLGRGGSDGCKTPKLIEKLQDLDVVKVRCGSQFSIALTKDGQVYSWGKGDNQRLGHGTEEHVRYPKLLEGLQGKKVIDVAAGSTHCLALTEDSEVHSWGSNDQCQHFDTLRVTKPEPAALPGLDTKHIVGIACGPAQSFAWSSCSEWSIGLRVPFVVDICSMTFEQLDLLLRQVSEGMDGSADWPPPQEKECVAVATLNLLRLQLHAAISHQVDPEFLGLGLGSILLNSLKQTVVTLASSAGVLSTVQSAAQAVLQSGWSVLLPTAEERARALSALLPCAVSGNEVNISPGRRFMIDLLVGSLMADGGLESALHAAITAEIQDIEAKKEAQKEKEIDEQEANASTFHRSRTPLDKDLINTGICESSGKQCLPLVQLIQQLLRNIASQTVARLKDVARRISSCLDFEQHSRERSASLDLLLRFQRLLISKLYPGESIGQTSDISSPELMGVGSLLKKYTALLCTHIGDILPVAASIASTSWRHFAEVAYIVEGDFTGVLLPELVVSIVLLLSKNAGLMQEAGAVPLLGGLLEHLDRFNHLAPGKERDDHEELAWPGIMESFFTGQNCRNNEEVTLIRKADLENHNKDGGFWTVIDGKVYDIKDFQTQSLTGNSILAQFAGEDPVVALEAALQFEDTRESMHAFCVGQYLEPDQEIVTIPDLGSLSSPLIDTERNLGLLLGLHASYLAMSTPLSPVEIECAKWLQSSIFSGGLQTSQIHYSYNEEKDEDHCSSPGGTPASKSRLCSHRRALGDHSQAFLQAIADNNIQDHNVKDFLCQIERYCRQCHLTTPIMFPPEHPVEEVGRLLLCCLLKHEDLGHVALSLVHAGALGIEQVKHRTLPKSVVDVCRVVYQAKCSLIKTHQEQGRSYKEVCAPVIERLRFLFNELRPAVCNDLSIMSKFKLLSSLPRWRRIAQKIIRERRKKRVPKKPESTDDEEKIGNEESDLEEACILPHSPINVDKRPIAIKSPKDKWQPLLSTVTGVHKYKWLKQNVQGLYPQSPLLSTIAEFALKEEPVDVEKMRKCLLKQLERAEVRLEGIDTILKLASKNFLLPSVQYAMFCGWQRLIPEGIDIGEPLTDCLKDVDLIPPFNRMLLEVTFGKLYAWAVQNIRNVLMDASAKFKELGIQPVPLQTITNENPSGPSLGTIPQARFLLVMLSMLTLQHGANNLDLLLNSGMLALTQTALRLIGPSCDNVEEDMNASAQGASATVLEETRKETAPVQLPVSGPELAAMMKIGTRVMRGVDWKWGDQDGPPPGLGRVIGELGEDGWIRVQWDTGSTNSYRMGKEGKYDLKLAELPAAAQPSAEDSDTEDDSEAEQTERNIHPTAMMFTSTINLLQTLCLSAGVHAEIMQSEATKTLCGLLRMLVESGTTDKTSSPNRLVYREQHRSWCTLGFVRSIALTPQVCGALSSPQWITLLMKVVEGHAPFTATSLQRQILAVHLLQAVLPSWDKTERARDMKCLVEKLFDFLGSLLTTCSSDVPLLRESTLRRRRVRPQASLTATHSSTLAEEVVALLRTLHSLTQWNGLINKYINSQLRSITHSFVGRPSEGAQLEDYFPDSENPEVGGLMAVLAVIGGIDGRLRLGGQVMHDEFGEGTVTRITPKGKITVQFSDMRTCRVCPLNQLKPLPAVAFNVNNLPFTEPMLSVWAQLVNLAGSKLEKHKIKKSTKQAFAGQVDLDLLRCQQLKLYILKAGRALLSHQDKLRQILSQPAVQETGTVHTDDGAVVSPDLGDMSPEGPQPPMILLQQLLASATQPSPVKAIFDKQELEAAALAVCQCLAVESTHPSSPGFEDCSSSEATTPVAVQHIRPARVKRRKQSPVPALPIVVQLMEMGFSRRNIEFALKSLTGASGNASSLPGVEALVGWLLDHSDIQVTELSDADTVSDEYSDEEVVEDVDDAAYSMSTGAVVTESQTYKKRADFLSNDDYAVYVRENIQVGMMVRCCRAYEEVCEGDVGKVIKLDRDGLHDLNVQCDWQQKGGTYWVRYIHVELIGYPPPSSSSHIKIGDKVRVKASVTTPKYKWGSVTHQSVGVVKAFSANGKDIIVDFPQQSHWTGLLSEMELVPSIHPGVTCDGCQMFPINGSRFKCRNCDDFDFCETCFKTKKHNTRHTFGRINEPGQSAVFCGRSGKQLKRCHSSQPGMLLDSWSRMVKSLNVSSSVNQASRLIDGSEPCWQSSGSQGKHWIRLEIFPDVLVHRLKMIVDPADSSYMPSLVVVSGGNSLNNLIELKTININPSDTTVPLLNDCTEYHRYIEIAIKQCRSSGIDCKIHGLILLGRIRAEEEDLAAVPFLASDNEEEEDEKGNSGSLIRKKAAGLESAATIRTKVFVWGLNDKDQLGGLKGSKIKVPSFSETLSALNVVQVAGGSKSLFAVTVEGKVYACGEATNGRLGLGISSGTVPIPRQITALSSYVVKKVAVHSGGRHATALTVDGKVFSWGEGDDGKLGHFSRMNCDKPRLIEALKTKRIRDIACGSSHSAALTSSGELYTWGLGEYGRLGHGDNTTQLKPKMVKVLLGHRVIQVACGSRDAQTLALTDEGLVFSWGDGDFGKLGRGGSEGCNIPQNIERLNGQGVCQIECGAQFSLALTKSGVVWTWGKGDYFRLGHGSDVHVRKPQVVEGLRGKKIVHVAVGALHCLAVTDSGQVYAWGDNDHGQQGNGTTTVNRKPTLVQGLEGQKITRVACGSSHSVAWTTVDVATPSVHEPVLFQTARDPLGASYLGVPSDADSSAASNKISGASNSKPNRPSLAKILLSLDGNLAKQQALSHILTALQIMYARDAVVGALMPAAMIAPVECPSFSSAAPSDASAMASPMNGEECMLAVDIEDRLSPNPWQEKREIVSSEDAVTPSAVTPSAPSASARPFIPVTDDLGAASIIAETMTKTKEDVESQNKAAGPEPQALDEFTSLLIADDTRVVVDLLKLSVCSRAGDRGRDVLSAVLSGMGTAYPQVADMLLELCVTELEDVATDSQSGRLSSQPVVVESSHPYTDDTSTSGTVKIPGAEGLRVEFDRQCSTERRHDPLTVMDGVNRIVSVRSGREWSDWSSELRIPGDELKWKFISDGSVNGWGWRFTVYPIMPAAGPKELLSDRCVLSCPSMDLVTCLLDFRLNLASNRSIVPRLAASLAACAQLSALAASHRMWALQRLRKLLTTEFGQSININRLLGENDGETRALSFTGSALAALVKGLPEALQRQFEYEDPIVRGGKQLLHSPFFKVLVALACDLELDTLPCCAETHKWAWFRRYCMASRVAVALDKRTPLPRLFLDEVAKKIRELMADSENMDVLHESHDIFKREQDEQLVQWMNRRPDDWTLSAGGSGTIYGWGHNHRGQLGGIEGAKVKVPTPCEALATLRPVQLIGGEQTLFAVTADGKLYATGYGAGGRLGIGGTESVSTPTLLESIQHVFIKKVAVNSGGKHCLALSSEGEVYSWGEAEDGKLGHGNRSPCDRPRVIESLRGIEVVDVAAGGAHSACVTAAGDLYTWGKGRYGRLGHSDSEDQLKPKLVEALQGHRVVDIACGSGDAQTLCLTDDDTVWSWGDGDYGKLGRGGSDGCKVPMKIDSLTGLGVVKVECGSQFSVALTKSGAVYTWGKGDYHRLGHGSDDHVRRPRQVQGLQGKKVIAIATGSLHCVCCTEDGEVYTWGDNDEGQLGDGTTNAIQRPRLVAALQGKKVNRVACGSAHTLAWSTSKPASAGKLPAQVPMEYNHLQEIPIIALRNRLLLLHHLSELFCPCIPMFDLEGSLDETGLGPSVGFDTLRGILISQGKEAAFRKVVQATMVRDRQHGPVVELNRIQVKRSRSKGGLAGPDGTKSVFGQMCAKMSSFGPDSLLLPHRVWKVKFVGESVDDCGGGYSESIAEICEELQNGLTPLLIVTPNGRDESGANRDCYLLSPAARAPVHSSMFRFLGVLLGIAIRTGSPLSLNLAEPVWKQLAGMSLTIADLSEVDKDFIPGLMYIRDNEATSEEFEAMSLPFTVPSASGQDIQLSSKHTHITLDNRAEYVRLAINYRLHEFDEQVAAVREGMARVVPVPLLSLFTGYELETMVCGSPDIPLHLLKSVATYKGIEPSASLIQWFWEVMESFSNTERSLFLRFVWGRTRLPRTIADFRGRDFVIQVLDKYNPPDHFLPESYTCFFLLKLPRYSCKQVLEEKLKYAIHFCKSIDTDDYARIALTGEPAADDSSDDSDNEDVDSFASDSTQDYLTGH
UniProt Q8N4P3, whole entry, looked up: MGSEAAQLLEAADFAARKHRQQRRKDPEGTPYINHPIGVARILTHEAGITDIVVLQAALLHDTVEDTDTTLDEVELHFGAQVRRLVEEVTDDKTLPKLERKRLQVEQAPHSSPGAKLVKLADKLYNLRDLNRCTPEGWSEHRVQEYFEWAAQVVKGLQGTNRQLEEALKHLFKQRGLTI
UniProt Q8WW33: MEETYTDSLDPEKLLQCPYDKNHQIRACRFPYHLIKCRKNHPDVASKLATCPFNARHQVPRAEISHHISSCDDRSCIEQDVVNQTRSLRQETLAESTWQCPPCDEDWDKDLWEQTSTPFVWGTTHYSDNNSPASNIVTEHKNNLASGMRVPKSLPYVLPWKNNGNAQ
UniProt A4D1E9: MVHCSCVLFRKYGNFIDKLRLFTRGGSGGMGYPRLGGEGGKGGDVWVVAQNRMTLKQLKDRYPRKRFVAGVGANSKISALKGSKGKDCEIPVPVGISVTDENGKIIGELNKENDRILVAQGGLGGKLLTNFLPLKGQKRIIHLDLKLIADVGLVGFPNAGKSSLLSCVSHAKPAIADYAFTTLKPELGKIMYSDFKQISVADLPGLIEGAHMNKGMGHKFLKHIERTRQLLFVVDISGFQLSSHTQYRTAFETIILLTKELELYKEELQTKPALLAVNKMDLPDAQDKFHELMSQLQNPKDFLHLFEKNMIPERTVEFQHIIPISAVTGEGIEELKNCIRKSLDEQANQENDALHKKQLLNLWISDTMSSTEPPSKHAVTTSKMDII
UniProt P16402, whole entry, looked up: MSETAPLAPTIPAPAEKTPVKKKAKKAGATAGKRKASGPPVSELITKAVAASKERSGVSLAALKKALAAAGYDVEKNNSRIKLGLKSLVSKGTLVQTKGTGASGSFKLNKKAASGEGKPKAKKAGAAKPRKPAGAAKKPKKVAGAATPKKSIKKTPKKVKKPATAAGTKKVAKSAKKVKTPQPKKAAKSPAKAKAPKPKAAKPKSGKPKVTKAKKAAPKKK

crizotinib = compound: C[C@@H](Oc1cc(-c2cnn(C3CCNCC3)c2)cnc1N)c1c(Cl)ccc(F)c1Cl [crizotinib]
Procedure, shortened: as §1

[2] = compound: C[C@@H]1COCCN1C2=NC(=NC(=C2)C3(CC3)S(=O)(=O)C)C4=C5C=CNC5=CC=C4
Procedure, shortened: as §1

[3] = compound: C[C@H](C1=CC=C(C=C1)C(=O)NC2=C3C=CNC3=NC=C2)N
Procedure, shortened: as §1

duvelisib = compound: C[C@H](Nc1ncnc2nc[nH]c12)c1cc2cccc(Cl)c2c(=O)n1-c1ccccc1 [duvelisib]
Procedure, shortened: as §1

gandotinib = compound: Cc1cc(Nc2cc(CN3CCOCC3)c3nc(C)c(Cc4ccc(Cl)cc4F)n3n2)n[nH]1 [gandotinib]
Procedure, shortened: as §1

tozasertib = compound: Cc1cc(Nc2cc(N3CCN(C)CC3)nc(Sc3ccc(NC(=O)C4CC4)cc3)n2)n[nH]1 [tozasertib]
Procedure, shortened: as §1

[4] = compound: Cc1cc(SCc2sc(-c3ccc(C(F)(F)F)cc3)nc2C)ccc1OCC(=O)O
Procedure, shortened: as §1

doramapimod = compound: Cc1ccc(-n2nc(C(C)(C)C)cc2NC(=O)Nc2ccc(OCCN3CCOCC3)c3ccccc23)cc1 [doramapimod]
Procedure, shortened: as §1

ispinesib = compound: Cc1ccc(C(=O)N(CCCN)[C@@H](c2nc3cc(Cl)ccc3c(=O)n2Cc2ccccc2)C(C)C)cc1 [ispinesib]
Procedure, shortened: as §1

bafetinib = compound: Cc1ccc(NC(=O)c2ccc(CN3CC[C@H](N(C)C)C3)c(C(F)(F)F)c2)cc1Nc1nccc(-c2cncnc2)n1 [bafetinib]
Procedure, shortened: as §1

[5] = compound: Cc1cccc(CC(=O)N2CCc3c2ccc(-c2cn(C)c4ncnc(N)c24)c3F)n1
Procedure, shortened: as §1

nilotinib = compound: Cc1cn(-c2cc(NC(=O)c3ccc(C)c(Nc4nccc(-c5cccnc5)n4)c3)cc(C(F)(F)F)c2)cn1 [nilotinib]
Procedure, shortened: as §1

[6] = compound: Cc1nc(Nc2n[nH]c3c2CN(C(=O)N[C@H](CN(C)C)c2ccccc2)C3(C)C)c2sccc2n1
Procedure, shortened: as §1

dasatinib = compound: Cc1nc(Nc2ncc(C(=O)Nc3c(C)cccc3Cl)s2)cc(N2CCN(CCO)CC2)n1 [dasatinib]
Procedure, shortened: as §1

[7] = compound: Cc1ncc(-c2ccnc(Nc3ccc(S(C)(=O)=O)cc3)n2)n1C(C)C
Procedure, shortened: as §1

[8] = compound: Cn1cc(-c2ccc3c(c2)CCN3C(=O)Cc2cccc(C(F)(F)F)c2)c2c(N)ncnc21
Procedure, shortened: as §1

[9] = compound: Cn1cc(-c2ccc3nnc(C(F)(F)c4ccc5ncccc5c4)n3n2)cn1
Procedure, shortened: as §1

tipifarnib = compound: Cn1cncc1[C@@](N)(c1ccc(Cl)cc1)c1ccc2c(c1)c(-c1cccc(Cl)c1)cc(=O)n2C [tipifarnib]
Procedure, shortened: as §1

mubritinib = compound: FC(F)(F)c1ccc(/C=C/c2nc(COc3ccc(CCCCn4ccnn4)cc3)co2)cc1 [mubritinib]
Procedure, shortened: as §1

Measured: log2 fold change

GYPC (UniProt P04921)
inactive: [1] 0.005 | crizotinib 0.189 | [2] 0.09 | [3] 0.244 | duvelisib 0.126 | gandotinib -0.028 | tozasertib 0.055 | [4] -0.059 | doramapimod -0.034 | ispinesib 0.177 | bafetinib 0 | [5] -0.08 | nilotinib -0.009 | [6] 0.039 | dasatinib 0.073 | [7] 0.034 | [8] -0.127 | [9] 0.015 | tipifarnib 0.134 | mubritinib 0

HBS1L isoform 2 (UniProt Q9Y450)
inactive: [1] 0.04 | crizotinib 0.047 | [2] 0.011 | [3] -0.143 | duvelisib 0.061 | gandotinib -0.001 | tozasertib -0.059 | [4] -0.178 | doramapimod -0.037 | ispinesib -0.073 | bafetinib -0.114 | [5] 0.065 | nilotinib -0.079 | [6] 0.173 | dasatinib -0.366 | [7] 0.035 | [8] 0.03 | [9] -0.027 | tipifarnib -0.031 | mubritinib -0.114

H1-4 (UniProt P10412)
inactive: [1] -0.036 | crizotinib 0.044 | [2] -0.633 | [3] 0.318 | duvelisib -0.266 | gandotinib 0.219 | tozasertib -0.059 | [4] -0.008 | doramapimod 0.066 | ispinesib -0.18 | bafetinib 0.313 | [5] -0.075 | nilotinib 0.047 | [6] 0.016 | dasatinib 0.135 | [7] -0.11 | [8] -0.365 | [9] -0.303 | tipifarnib 0.162 | mubritinib -0.062

HEPH isoform 3 (UniProt Q9BQS7)
inactive: [1] 0.018 | crizotinib -0.022 | [2] -0.085 | [3] 0.118 | duvelisib -0.035 | gandotinib -0.003 | tozasertib -0.002 | [4] 0.053 | doramapimod 0.052 | ispinesib -0.043 | bafetinib -0.08 | [5] -0.023 | nilotinib 0.009 | [6] -0.004 | dasatinib -0.005 | [7] -0.001 | [8] -0.028 | [9] -0.036 | tipifarnib 0.055 | mubritinib 0.011

GTPBP3 isoform 2 (UniProt Q969Y2)
inactive: [1] 0.018 | crizotinib 0.077 | [2] 0.058 | [3] -0.03 | duvelisib 0.036 | gandotinib -0.018 | tozasertib 0.005 | [4] -0.045 | doramapimod -0.031 | ispinesib 0.019 | bafetinib -0.032 | [5] -0.039 | nilotinib -0.028 | [6] -0.008 | dasatinib -0.018 | [7] -0.006 | [8] 0.061 | [9] 0.032 | tipifarnib 0.036 | mubritinib 0.013

H1-2 (UniProt P16403)
inactive: [1] 0.014 | crizotinib -0.024 | [2] -0.342 | [3] 0.407 | duvelisib -0.23 | gandotinib 0.357 | tozasertib -0.033 | [4] -0.015 | doramapimod 0.275 | ispinesib -0.045 | bafetinib 0.361 | [5] -0.055 | nilotinib 0.019 | [6] -0.014 | dasatinib 0.136 | [7] -0.09 | [8] -0.271 | [9] -0.055 | tipifarnib 0.189 | mubritinib -0.148

HACD3 (UniProt Q9P035)
inactive: [1] 0.017 | crizotinib 0.046 | [2] -0.033 | [3] -0.055 | duvelisib 0.035 | gandotinib -0.101 | tozasertib 0.003 | [4] 0.007 | doramapimod 0.051 | ispinesib -0.047 | bafetinib -0.052 | [5] 0.006 | nilotinib -0.081 | [6] 0.014 | dasatinib 0.013 | [7] 0.007 | [8] -0.011 | [9] 0.05 | tipifarnib -0.051 | mubritinib 0.012

HARS (UniProt P12081)
inactive: [1] -0.008 | crizotinib 0.049 | [2] -0.001 | [3] -0.036 | duvelisib 0.021 | gandotinib -0.012 | tozasertib -0.024 | [4] -0.049 | doramapimod -0.018 | ispinesib 0.012 | bafetinib -0.07 | [5] -0.007 | nilotinib -0.006 | [6] -0.015 | dasatinib 0.056 | [7] -0.022 | [8] 0.009 | [9] 0.044 | tipifarnib 0.02 | mubritinib 0.015

HAGH (UniProt Q16775)
inactive: [1] 0.07 | crizotinib -0.008 | [2] 0.035 | [3] 0.005 | duvelisib 0.052 | gandotinib -0.019 | tozasertib -0.046 | [4] 0.019 | doramapimod -0.028 | ispinesib 0.004 | bafetinib -0.011 | [5] -0.013 | nilotinib 0.016 | [6] -0.021 | dasatinib -0.014 | [7] 0.05 | [8] 0.03 | [9] -0.065 | tipifarnib 0.018 | mubritinib 0.049

3 consecutive records already listed, quoted:
GTPBP3 isoform 2 (UniProt Q969Y2)
inactive: [1] 0.018 | crizotinib 0.077 | [2] 0.058 | [3] -0.03 | duvelisib 0.036 | gandotinib -0.018 | tozasertib 0.005 | [4] -0.045 | doramapimod -0.031 | ispinesib 0.019 | bafetinib -0.032 | [5] -0.039 | nilotinib -0.028 | [6] -0.008 | dasatinib -0.018 | [7] -0.006 | [8] 0.061 | [9] 0.032 | tipifarnib 0.036 | mubritinib 0.013

H1-2 (UniProt P16403)
inactive: [1] 0.014 | crizotinib -0.024 | [2] -0.342 | [3] 0.407 | duvelisib -0.23 | gandotinib 0.357 | tozasertib -0.033 | [4] -0.015 | doramapimod 0.275 | ispinesib -0.045 | bafetinib 0.361 | [5] -0.055 | nilotinib 0.019 | [6] -0.014 | dasatinib 0.136 | [7] -0.09 | [8] -0.271 | [9] -0.055 | tipifarnib 0.189 | mubritinib -0.148

HACD3 (UniProt Q9P035)
inactive: [1] 0.017 | crizotinib 0.046 | [2] -0.033 | [3] -0.055 | duvelisib 0.035 | gandotinib -0.101 | tozasertib 0.003 | [4] 0.007 | doramapimod 0.051 | ispinesib -0.047 | bafetinib -0.052 | [5] 0.006 | nilotinib -0.081 | [6] 0.014 | dasatinib 0.013 | [7] 0.007 | [8] -0.011 | [9] 0.05 | tipifarnib -0.051 | mubritinib 0.012

(further entries)

HERC2 (UniProt O95714)
inactive: [1] 0.186 | crizotinib -0.001 | [2] -0.084 | [3] 0.378 | duvelisib -0.058 | gandotinib 0.044 | tozasertib -0.034 | [4] 0.095 | doramapimod 0.263 | ispinesib -0.425 | bafetinib 0 | [5] -0.085 | nilotinib -0.015 | [6] 0.032 | dasatinib 0.014 | [7] 0.079 | [8] -0.229 | [9] -0.061 | tipifarnib -0.076 | mubritinib -0.061

HDDC3 (UniProt Q8N4P3)
inactive: [1] 0.036 | crizotinib -0.012 | [2] 0.053 | [3] -0.042 | duvelisib 0.135 | gandotinib 0.035 | tozasertib -0.001 | [4] -0.06 | doramapimod 0.009 | ispinesib 0.006 | bafetinib -0.106 | [5] -0.02 | nilotinib -0.009 | [6] -0.011 | dasatinib 0.084 | [7] 0.017 | [8] 0.012 | [9] 0.051 | tipifarnib -0.009 | mubritinib 0.019

GTSE1 (UniProt Q9NYZ3)
inactive: [1] 0.042 | crizotinib -0.033 | [2] -0.351 | [3] 0.164 | duvelisib -0.129 | gandotinib 0.007 | tozasertib 0.043 | [4] -0.169 | doramapimod 0.158 | ispinesib -0.173 | bafetinib 0.12 | [5] -0.005 | nilotinib 0.021 | [6] 0.053 | dasatinib 0.22 | [7] -0.028 | [8] 0.047 | [9] 0.005 | tipifarnib 0.064 | mubritinib -0.121

GTSF1 (UniProt Q8WW33)
inactive: [1] 0.013 | crizotinib 0.052 | [2] 0.121 | [3] -0.097 | duvelisib 0.015 | gandotinib -0.011 | tozasertib 0 | [4] -0.011 | doramapimod -0.017 | ispinesib -0.091 | bafetinib -0.073 | [5] 0.01 | nilotinib 0.074 | [6] 0.003 | dasatinib 0.033 | [7] -0.019 | [8] 0.136 | [9] 0.274 | tipifarnib 0.025 | mubritinib 0.021

HADH isoform 2 (UniProt Q16836)
inactive: [1] 0.052 | crizotinib 0.023 | [2] 0.07 | [3] -0.035 | duvelisib -0.002 | gandotinib 0.022 | tozasertib -0.033 | [4] -0.027 | doramapimod 0.019 | ispinesib 0.056 | bafetinib -0.005 | [5] 0.063 | nilotinib 0.049 | [6] -0.017 | dasatinib 0.093 | [7] -0.023 | [8] 0.051 | [9] 0.027 | tipifarnib 0.071 | mubritinib 0.131

GTPBP10 (UniProt A4D1E9)
inactive: [1] -0.186 | crizotinib 0.197 | [2] 0.018 | [3] 0.301 | duvelisib -0.022 | gandotinib -0.228 | tozasertib 0.053 | [4] 0.001 | doramapimod -0.021 | ispinesib -0.109 | bafetinib 0.124 | [5] 0.038 | nilotinib -0.288 | [6] -0.009 | dasatinib 0.007 | [7] -0.176 | [8] -0.092 | [9] -0.082 | tipifarnib 0.089 | mubritinib -0.223

H1-3 (UniProt P16402)
inactive: [1] -0.086 | crizotinib 0.023 | [2] -0.638 | [3] 0.294 | duvelisib -0.169 | gandotinib 0.26 | tozasertib -0.05 | [4] 0.025 | doramapimod 0.25 | ispinesib -0.085 | bafetinib 0.392 | [5] -0.022 | nilotinib 0.054 | [6] 0.037 | dasatinib 0.147 | [7] -0.058 | [8] -0.292 | [9] -0.134 | tipifarnib 0.076 | mubritinib -0.184

— the supplement of paper PMC10849652
